Measured values: patent publication US7700310B2, “Method for detecting transferase enzymatic activity” (Promega Corporation, priority 2002, dated 2010)
Some of these results come from one statement about several compounds together. At least one compound was matched to its structure with a doubt left.

molecular target: PKA (Bos taurus, UniProt P00517); assay: High throughput screen of LOPAC library compounds for inhibition of PKA, luminescent ATP detection kinase assay; settings: 10 μM of each library compound; 0.5 U/well PKA; 1 μM ATP; 5 μM kemptide; 20 minute kinase reaction; 96 well plate

Luminescence (RLU) after kinase reaction; "hits" or positives identified (RLU>40,000), > 40,000 RLU:
O=C1Nc2ccc(I)cc2/C1=C/c1cc(Br)c(O)c(Br)c1 [GW5074]
CC1CNCCN1S(=O)(=O)c1cccc2cnccc12.Cl.Cl (centres unmarked) [H-7 dihydrochloride]
Cl.Cl.NCCNS(=O)(=O)c1cccc2cnccc12 [H-9 dihydrochloride]
Cl.NC(N)=NCCNS(=O)(=O)c1cccc2cnccc12 [HA-1004 hydrochloride]
COc1ccc2c(c1)CC[C@@H]1[C@@H]2CC[C@]2(C)[C@@H](NCCCCCCN3C(=O)C=CC3=O)CC[C@@H]12 [U-73122]
